From US20020177172A1, “RESTORATION OF PLATELET AGGREGATION BY ANTIBODY ADMINISTRATION AFTER GPIIB/IIIA ANTAGONIST TREATMENT” (priority 1996, published 2002)
Some results were stated once for a whole list of compounds, not compound by compound.

Protein sequences, listed by entry. Tags and fused reporters are not part of them. Residues count along the entry.
UniProt P05106, 27-788: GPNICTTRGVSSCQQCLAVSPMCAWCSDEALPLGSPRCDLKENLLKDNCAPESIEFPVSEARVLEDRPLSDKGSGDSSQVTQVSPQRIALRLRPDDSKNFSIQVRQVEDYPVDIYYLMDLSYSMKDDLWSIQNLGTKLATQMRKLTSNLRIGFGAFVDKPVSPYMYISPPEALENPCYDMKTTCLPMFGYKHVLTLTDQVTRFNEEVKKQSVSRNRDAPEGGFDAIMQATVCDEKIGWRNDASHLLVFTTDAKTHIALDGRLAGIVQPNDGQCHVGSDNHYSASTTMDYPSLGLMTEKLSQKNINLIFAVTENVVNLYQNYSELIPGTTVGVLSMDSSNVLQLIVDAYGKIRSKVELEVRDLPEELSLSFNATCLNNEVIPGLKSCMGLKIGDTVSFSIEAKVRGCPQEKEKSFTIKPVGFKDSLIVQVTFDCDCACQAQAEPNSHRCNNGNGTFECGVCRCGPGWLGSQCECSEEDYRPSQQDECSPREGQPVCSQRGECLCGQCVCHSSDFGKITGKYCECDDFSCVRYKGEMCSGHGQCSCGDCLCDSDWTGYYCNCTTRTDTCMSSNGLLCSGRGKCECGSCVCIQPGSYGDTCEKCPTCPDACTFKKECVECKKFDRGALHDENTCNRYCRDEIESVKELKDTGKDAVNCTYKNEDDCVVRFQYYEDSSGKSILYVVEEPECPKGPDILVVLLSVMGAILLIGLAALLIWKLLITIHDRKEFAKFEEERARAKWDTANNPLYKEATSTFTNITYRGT
UniProt P08514, 32-887 limits assumed: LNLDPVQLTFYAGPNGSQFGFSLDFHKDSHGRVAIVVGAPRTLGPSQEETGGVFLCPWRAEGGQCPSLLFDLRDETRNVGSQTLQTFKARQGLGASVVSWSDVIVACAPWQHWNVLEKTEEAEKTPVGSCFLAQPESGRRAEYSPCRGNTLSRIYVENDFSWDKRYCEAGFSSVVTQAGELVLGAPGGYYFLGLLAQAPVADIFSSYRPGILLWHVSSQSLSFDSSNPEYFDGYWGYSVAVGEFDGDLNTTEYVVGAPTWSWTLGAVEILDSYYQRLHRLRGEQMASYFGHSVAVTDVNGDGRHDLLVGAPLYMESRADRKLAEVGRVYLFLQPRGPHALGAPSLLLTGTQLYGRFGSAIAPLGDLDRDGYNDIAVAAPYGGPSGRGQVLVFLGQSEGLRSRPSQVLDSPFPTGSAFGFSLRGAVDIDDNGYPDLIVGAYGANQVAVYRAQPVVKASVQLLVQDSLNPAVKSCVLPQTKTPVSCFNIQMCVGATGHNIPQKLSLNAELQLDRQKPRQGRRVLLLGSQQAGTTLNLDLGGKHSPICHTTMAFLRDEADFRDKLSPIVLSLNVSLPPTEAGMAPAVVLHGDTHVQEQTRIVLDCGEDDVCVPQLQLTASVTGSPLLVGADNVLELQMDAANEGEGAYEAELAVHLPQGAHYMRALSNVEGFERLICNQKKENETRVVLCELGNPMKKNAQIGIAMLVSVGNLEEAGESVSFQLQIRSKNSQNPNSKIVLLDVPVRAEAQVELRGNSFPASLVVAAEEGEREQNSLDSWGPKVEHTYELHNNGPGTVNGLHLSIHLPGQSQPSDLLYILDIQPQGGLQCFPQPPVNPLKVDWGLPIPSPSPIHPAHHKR
UniProt P08514, 891-1039 partner limits assumed: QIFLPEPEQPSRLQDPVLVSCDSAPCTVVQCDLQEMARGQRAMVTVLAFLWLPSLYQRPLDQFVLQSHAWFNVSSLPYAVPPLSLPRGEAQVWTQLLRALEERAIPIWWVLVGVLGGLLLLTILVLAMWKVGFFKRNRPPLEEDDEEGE

Molecular target: T1, GPIIb/IIIa receptor (Homo sapiens, UniProt P05106+P08514)
T1 construct: Washed platelets, prepared as described above, were incubated with 50 nM of [^3H]-compound B; endogenous in cells; host or cells: washed human platelets from donor blood
Assay: GPIIb/IIIa antagonist off-rate from the receptor (filter binding assay, washed human platelets)
Details: class by off-rate and plasma half-life

Compound	Classification by binding off-rate from the GPIIb/IIIa receptor
CCOC(=O)COC1CCN(C(=O)C(C)NC(=O)c2ccc(/C(N)=N/O)cc2)CC1 (stereo not drawn) [Sibafiban]	Classification: 3 (Class 3) 0.7/seconds (t1/2˜1 second) to 0.012/seconds (t1/2˜60 seconds), and a long plasma half-life)
N=C(N)c1ccc(N2CC[C@H](NC(=O)NCCC(=O)O)C2=O)cc1 [Compound D, 3-[[[[1-[4-(aminoiminomethyl)phenyl]-2-oxo-pyrrolidin-3S-yl]amino]carbonyl]amino]propanoic acid]	Classification: 3 (Class 3) 0.7/seconds (t1/2˜1 second) to 0.012/seconds (t1/2˜60 seconds), and a long plasma half-life)
C#C[C@H](CC(=O)O)NC(=O)CCC(=O)Nc1ccc(C(=N)N)cc1 [Compound B, 3S-[[4-[[4-(aminoiminomethyl)phenyl]amino]-1,4-dioxobutyl]amino]-4-pentynoic acid]	Classification: 3 (Class 3) 0.7/seconds (t1/2˜1 second) to 0.012/seconds (t1/2˜60 seconds), and a long plasma half-life)
O=C(O)C[C@@H](CCc1c[nH]c2ccccc12)NC(=O)CNC(=O)CCCC1CCNCC1 [L 70314, (R)-beta[[[[1-oxo-4(4-piperidinyl)butyl]amino]-acetyl]amino]-1H-indole-3-pentanoic acid]	Classification: 3 (Class 3) 0.7/seconds (t1/2˜1 second) to 0.012/seconds (t1/2˜60 seconds), and a long plasma half-life)
N=C(N)c1ccc(C2=NOC(C(=O)NCCC(=O)C(=O)O)C2)cc1 (stereo not drawn) [XR 299]	Classification: 3 (Class 3) 0.7/seconds (t1/2˜1 second) to 0.012/seconds (t1/2˜60 seconds), and a long plasma half-life)
Roxifiban	Classification: 1 (Class 1) 0.009/seconds (t1/2˜75 seconds) to 0.00012/seconds (t1/2˜6000 seconds), and short plasma half-life)
